{
  "source": "patent US20240335427A1",
  "about": "“SMALL MOLECULE INHIBITION OF DEUBIQUITINATING ENZYME JOSEPHIN DOMAIN CONTAINING 1 (JOSD1) AS A TARGETED THERAPY FOR LEUKEMIAS WITH MUTANT JANUS KINASE 2 (JAK2)” (DANA-FARBER CANCER INSTITUTE, INC., priority 2021, published 2024)",
  "biological_target": "JAK2-V617F (Homo sapiens (Human), UniProt O60674, V617F)",
  "assay": "JAK2-V617F protein loss in human AML cell lines by western blotting",
  "type": "cell-based",
  "conditions": "JAK2-V617F-positive human AML cell lines (HEL, SET-2, MUTZ8), western blot",
  "method": "Immunoblotting and Immunoprecipitation. Protein lysate preparation, immunoblotting, and immunoprecipitation were carried out as previously described (Lamberto, et al., 2017 Cell Chem Biol., 224(12):1490-500 e11). Briefly, 0.7×10^6 cells were treated with compounds 1 and 2 at 0, 5, 10, and 20 μM for 16 or 24 hours, cells were collected, and lysate was prepared in radioimmunoprecipitation assay (RIPA) buffer, JAK family and downstream signaling protein levels were detected by western blotting with the indicated antibodies. For immunoprecipitation, 1 mg protein for each sample was prepared and 1 μg antibody was used, immunoglobulin G (IgG) was added in same amount as nontargeting control.",
  "note": "At least one compound was matched to its structure with a doubt left.",
  "data": [
    {"smiles": "CCS(=O)(=O)N1CCN(c2nc3cccc(-c4c(C)noc4C)c3s2)C(=O)C1", "note": "[Compound 66, reference compound]", "values": [
      {"measurement": "JAK2-V617F protein loss / degradation", "result": "does not induce degradation of JAK2-V617F"}
    ]}
  ]
}
